Experimental data: PubChem BioAssay AID686943 (Drosophila RNAi Screening Center, 2013)
The deposit covers about 23,000 reagents; shown is a random part of those that have a named target and a result. 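Extra replicates exist only for a retested subset of genes; insulin dose and duration not given; both raised and lowered dpERK matter.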 Reagents against one gene are numbered here. A plus sign joins genes that one reagent is predicted to hit. Further read-outs or replicates are left out here. Not given: the amount of reagent, the time to read-out.

Aim: 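Fly genes whose loss alters ERK activation after insulin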 (primary screen)
Cell system: Drosophila S2R+ haemocyte-like cells expressing YFP-tagged ERK (Rolled)
Reagent: long dsRNA against Drosophila genes
Conditions: insulin stimulation versus unstimulated cells; dose and duration not given
Measured: 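Antibody staining for doubly phosphorylated ERK divided by ERK-YFP signal, as plate z-scores, in insulin-treated and untreated cells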
Reading the numbers: replicate 1, z-score of dpERK with insulin: higher = more active ERK per ERK-YFP after insulin

replicate 1, z-score of dpERK with insulin, by gene knocked down and reagent
mRpL55 (GeneID 42290): #1 -1.15
Patronin (GeneID 36978): #1 -0.42; #2 -1.27; #3 -0.94
CG5447 (GeneID 43192): #1 0.03
CG15024 (GeneID 50172): #1 0.5
CG7333 (GeneID 42334): #1 -0.25
Cyp4ad1 (GeneID 35821): #1 -0.52
BBS5 (GeneID 40600): #1 0.41
CG13445 (GeneID 39719): #1 -0.25
CG13484 (GeneID 39560): #1 -0.76
CG7332 (GeneID 32885): #1 -0.36
CG2082 (GeneID 40713): #1 0.81
Kots (GeneID 41702): #1 -0.06
CG4286 (GeneID 37416): #1 -1.58
Ltn1 (GeneID 40127): #1 0.52; #2 0.3
CycC (GeneID 41801): #1 0.39
indra (GeneID 38159): #1 -1.08
cola + swif: #1 0.25; #2 0.84
CG12684 (GeneID 31390): #1 0.47
Lst8 (GeneID 31903): #1 -0.19
Scamp (GeneID 32470): #1 -0.21
COX3 (retired record) (GeneID 192471): #1 0.52
Eig71Ee (GeneID 39706): #1 -0.36
CG32284 (GeneID 317956): #1 -0.71
Ak6 (GeneID 36379): #1 0.3
CadN2 (GeneID 35071): #1 0.62; #2 0.84; #3 0.6
CG32036 (GeneID 39105): #1 -0.63
Ctns (GeneID 42723): #1 -1.24
CG6337 (GeneID 36530): #1 1.35; #2 0.1
CG31075 (GeneID 43244): #1 0.48
CG2712 (GeneID 31267): #1 0.62
CG5397 (GeneID 33313): #1 0.02
comr (GeneID 37492): #1 0.24
CG10433 (GeneID 37458): #1 0.38
trx (GeneID 41737): #1 -0.87
Alr (GeneID 32991): #1 1.09
CG11590 (GeneID 32368): #1 0.06
CG4669 (GeneID 38608): #1 -0.64
CG14448 (GeneID 40497): #1 -1.15
ppk13 (GeneID 3346226): #1 0.16
sced (GeneID 35564): #1 0.52
RhoGDI (GeneID 40179): #1 0.32
Sgf29 (GeneID 37429): #1 1.3
Fim (GeneID 32721): #1 -0.88
ND-PDSW (GeneID 44228): #1 0.47
nAChRalpha1 (GeneID 42918): #1 -1.18; #2 -3.93; #3 1.89; #4 0.17
CG10081 (GeneID 37226): #1 0.21
Poxm (GeneID 40990): #1 0.93; #2 0.57
